The structures given here were assigned with low confidence; some may be wrong.
Biological target: human PDE9A2 (Homo sapiens, UniProt O76083)
Test: PDE9A2 enzymatic activity assay (scintillation proximity assay, SPA)
Details: for % inhibition of PDE9A2 (at 10 micromolar concentration): values above 100% adjusted to 100%; for IC50: read-out: IC50 within range [nanomolar (nM)], reported only as range 1-100 or 101-1200 nanomolar, specific value lies within range

The chains behind the UniProt entries cited, without tags or fusion partners. Residues count along the entry.
UniProt O76083, 1-533 isoform 2: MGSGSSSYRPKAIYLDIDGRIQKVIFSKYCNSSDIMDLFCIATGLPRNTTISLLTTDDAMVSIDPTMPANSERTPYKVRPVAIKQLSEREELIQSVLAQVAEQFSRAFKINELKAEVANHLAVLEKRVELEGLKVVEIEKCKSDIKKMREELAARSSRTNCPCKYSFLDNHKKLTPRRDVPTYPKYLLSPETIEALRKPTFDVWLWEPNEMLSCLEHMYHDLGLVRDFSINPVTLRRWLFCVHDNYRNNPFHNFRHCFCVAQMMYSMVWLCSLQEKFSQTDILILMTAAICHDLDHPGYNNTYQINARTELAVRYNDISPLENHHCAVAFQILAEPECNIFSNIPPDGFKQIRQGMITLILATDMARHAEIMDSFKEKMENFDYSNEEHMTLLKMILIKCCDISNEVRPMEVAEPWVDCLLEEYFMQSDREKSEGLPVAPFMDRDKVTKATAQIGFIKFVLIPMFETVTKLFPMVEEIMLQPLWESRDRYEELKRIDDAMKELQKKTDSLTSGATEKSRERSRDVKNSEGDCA

% inhibition of PDE9A2 (at 10 micromolar concentration) | IC50 | Structure (SMILES)
98% | 1 to 100 nM | O=c1[nH]c(Cc2cccc(F)c2F)nc2c1cnn2C1CCOCC1
99% | 1 to 100 nM | O=c1[nH]c(Cc2ccccc2F)nc2c1cnn2C1CCOCC1

— US8623879B2, “1-heterocyclyl-1,5-dihydro-pyrazolo[3,4-D] pyrimidin-4-one derivates and their use as PDE9A modulators” (Boehringer Ingelheim International GmbH, priority 2008, dated 2014)
